Source: patent publication EP4707380A1, “LACTOBACILLUS MALI STRAIN AND USES THEREOF” (CJ Cheiljedang Corporation, priority 2023, dated 2024)
For at least one compound, name, drawing or mass did not settle the structure.

Tests used:
[1] = test system: Lactobacillus mali DSM20444 crude enzyme solution; experiment: Transglycosylation of steviol glycosides by crude enzyme solution (HPLC); details: steviol glycoside and sucrose 10% each, pH 5.0, 40°C, 24 hours
[2] = test system: Lactobacillus mali CJST01 crude enzyme solution; experiment: as above; format: biochemical; details: steviol glycoside and sucrose 10% each, pH 5.0, 40°C, 24 hours

Row | SMILES | production of the transglycosylated steviol glycoside, DSM20444 [1] | production of the transglycosylated steviol glycoside, CJST01 [2]
1 | C=C1C[C@@]23CC[C@H]4[C@@](C)(CCC[C@@]4(C)C(=O)O[C@@H]4O[C@H](CO)[C@@H](O)[C@H](O[C@@H]5O[C@H](CO)[C@@H](O)[C@H](O)[C@H]5O)[C@H]4O[C@@H]4O[C@@H](C)[C@H](O)[C@@H](O)[C@H]4O)[C@@H]2CC[C@]1(O[C@@H]1O[C@H](CO)[C@@H](O)[C@H](O[C@@H]2O[C@H](CO)[C@@H](O)[C@H](O)[C@H]2O)[C@H]1O[C@@H]1O[C@H](CO)[C@@H](O)[C@H](O)[C@H]1O)C3 [Rebaudioside N] | - | -
2 | C=C1C[C@@]23CC[C@H]4[C@@](C)(CCC[C@@]4(C)C(=O)O)[C@@H]2CC[C@]1(O[C@@H]1O[C@H](CO)[C@@H](O)[C@H](O)[C@H]1O[C@@H]1O[C@H](CO)[C@@H](O)[C@H](O)[C@H]1O)C3 [Steviolbioside] | - | 
3 | C=C1C[C@@]23CC[C@H]4[C@@](C)(CCC[C@@]4(C)C(=O)O[C@@H]4O[C@H](CO)[C@@H](O)[C@H](O)[C@H]4O[C@@H]4O[C@H](CO)[C@@H](O)[C@H](O)[C@H]4O)[C@@H]2CC[C@]1(O[C@@H]1O[C@H](CO)[C@@H](O)[C@H](O)[C@H]1O[C@@H]1O[C@H](CO)[C@@H](O)[C@H](O)[C@H]1O)C3 [Rebaudioside E] |  | -
